# Primary screen of a compound library

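Viability assay of Plasmodium falciparum sporozoites; the read-out is not stated. The concentration is filed as 10 mM, unlikely as a test dose, so the dose is not known. Higher reads as lower viability (inferred: compounds with an IC50 in retests scored well above the rest). Strong results were mostly tested again. Of about 34,000 compounds tested this way, about 280 (0.84%) reached 50% or more in at least one test.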

Results are given as percent effect. The record does not define 0% and 100%; most values in the screen are far below 50% and negative numbers occur (in some assays of this library far below -100). Compounds were drawn at random from those tested, without regard to their results. Two or more numbers in one place are separate tests of the same structure; such repeats can differ widely.

| # | structure | effect |
|---|---|---|
| 1 | `Cc1csc(N2CCN(C(=O)CCn3cccn3)CC2)n1` | 1.019 |
| 2 | `CC(C)(O)CN1CCN(C(=O)c2cccnc2O)CC1` | 4.187 |
| 3 | `Cc1cn2cc(-c3nc4c([nH]3)CCCNC4=O)nc2s1` | 1.23 and 25.12 and -9.577 |
| 4 | `CCCn1nccc1-c1cc(C2CCN(S(C)(=O)=O)CC2)ccn1` | 1.153 |
| 5 | `O=C(O)C(F)(F)F.[H][C@@]12OCCN(S(=O)(=O)C3CC3)[C@@]1([H])CC[C@@H]2Oc1ncccc1F` | 3.671 |
| 6 | `O=C(CCc1cc2n(n1)CCCN(C(=O)c1cccnc1)C2)NC1CC1` | -2.912 |
| 7 | `COc1ncccc1C(=O)N1CCCC(n2ccnc2)C1` (configuration not stated) | 6.203 |
| 8 | `CCOCC1CN(C(=O)C2=CCCC2)Cc2cnn(CC)c21` (configuration not stated) | -3.886 |
| 9 | `Cc1cc(CN2CCN(C(=O)NC(C)c3ccncc3)CC2)on1` (configuration not stated) | 6.587 |
| 10 | `Cc1cccc(SC2CCN(C(=O)CCCn3cnnn3)CC2)c1` | -5.037 |
| 11 | `CC(C)NC(=O)CCNC(=O)Nc1ccc(-n2cncn2)c(F)c1` | 7.574 |
| 12 | `COCC(C)NC(=O)c1cc(C)n(-c2cccc(OC)c2)c1C` (configuration not stated) | 6.934 |
| 13 | `CCN1CCN(C)C2(CCN(Cc3ccsc3)CC2)C1=O.O=C(O)C(F)(F)F.O=C(O)C(F)(F)F` | 6.318 |
| 14 | `CCOc1ccccc1CNC(=O)c1cnn(CC)c1C(F)(F)F` | 4.45 |
| 15 | `CCN1CCN(C2CCN(Cc3noc(C)n3)CC2)C1=O` | 11.1 |
| 16 | `O=C(NCc1ccc(OCC2CC2)nc1)Nc1c(F)cccc1F` | 1.597 |
| 17 | `Cc1cnn(C2CCCN(C(=O)c3cc(Cl)c4c(c3)OCO4)C2)c1` (configuration not stated) | 9.623 |
| 18 | `O=C1COc2ccc(C(=O)NS(=O)(=O)c3ccccc3F)cc2N1` | -18.22 |
| 19 | `CC(C)Sc1ncccc1C(=O)NCc1cccc(N(C)C)c1` | 3.663 |
| 20 | `O=C(c1cccnc1-n1cccn1)N1CCN(CC2CC2)CC1` | -1.294 |
| 21 | `O=C(Nc1cc(F)ccc1OCC1CCCO1)N1CCCC1` (configuration not stated) | -4.906 |
| 22 | `[H][C@]12CCN(c3cc(OC)ncn3)CC[C@]1([H])N(C)CCO2` | 1.926 |
| 23 | `Cc1cc(N(C)Cc2cc(C)on2)n2nc(C)c(C)c2n1` | 3.135 |
| 24 | `COCCN1C2(CCN(Cc3nccs3)C2)c2ccccc2S1(=O)=O.O=C(O)C(F)(F)F` (configuration not stated) | 23.11 |
| 25 | `O=C1CC2(CCN(S(=O)(=O)c3cccs3)C2)CN1c1cccc(F)c1` (configuration not stated) | -2.715 |
| 26 | `Cc1cnn(CC2CCCN2C(=O)CCCc2nc(C)no2)c1` (configuration not stated) | 10.48 |
| 27 | `[H][C@]12CCN(S(C)(=O)=O)[C@@]1([H])CC[C@@H](COCc1csc(C)n1)O2` | 0.9143 |
| 28 | `CC(C)c1nc(C2CCCN(C(=O)c3ccc4c(c3)COC4)C2)no1` (configuration not stated) | 8.035 |
| 29 | `Cc1nn(C)c(Cl)c1C(=O)NCC(c1ccsc1)N(C)C` (configuration not stated) | 5.016 |
| 30 | `Cc1cnn(CC2CN(CC(=O)NCc3ccco3)CCO2)c1` (configuration not stated) | 0.8748 |
| 31 | `O=C(NCCNc1cc(N2CCCC2)cnn1)Nc1ccccc1F` | 88.21 and 92.16 |
| 32 | `O=C(O)C(F)(F)F.[H][C@@]12OCCN(C(=O)C3=CCCC3)[C@@]1([H])CC[C@@H]2Oc1ccccn1` | -22.26 |
| 33 | `Cl.NCC1CCCCN1C(=O)Cc1cccc(Cl)c1` (configuration not stated) | -25.37 |
| 34 | `Cc1cc(NS(=O)(=O)c2ccc(C(=O)O)cc2F)ccc1F` | -4.376 |
| 35 | `Cc1ncc(S(C)(=O)=O)c(C2CCCNC2)n1` (configuration not stated) | 20.27 |
| 36 | `CCCn1nc(-c2nc(COc3ccccc3)no2)ccc1=O` | -41.83 |
| 37 | `O=C(O)C(F)(F)F.O=C(O)C(F)(F)F.O=C(O)C(F)(F)F.[H][C@@]12CCN(Cc3ccccn3)[C@@]1([H])CC(=O)N2CCN1CCOCC1` | 23.91 |
| 38 | `O=C(CSC1CCc2ccccc2NC1=O)NCCc1ccco1` (configuration not stated) | 11.12 |
| 39 | `COCCCNC(=O)CN(C)C(=O)c1cc(C)ccc1O` | -5.096 |
| 40 | `O=C(O)C(F)(F)F.O=C(O)C(F)(F)F.[H][C@@]12CCN(Cc3cc(C)on3)C[C@]1([H])OCCN(c1ccc(C)nc1)C2=O` | 10.85 |
| 41 | `CSC(C)C(=O)N(C)CCCc1cc(-c2ccccc2)no1` (configuration not stated) | -10.81 |
| 42 | `Cc1ccnc(NCCNC(=O)c2ccccc2NCC(=O)O)c1` | -19.27 and -27.92 |
| 43 | `CCN1C(=O)C(c2ccccc2)CC12CCN(c1ncccn1)CC2` (configuration not stated) | 11.46 |
| 44 | `O=C1COc2cc(C(=O)NS(=O)(=O)c3ccc(F)c(F)c3)ccc2N1` | 9.066 |
| 45 | `CCn1cc2c(n1)CN(Cc1sccc1C)CC2COCC1CC1.O=C(O)C(F)(F)F` (configuration not stated) | 1.347 |
| 46 | `O=C1N(c2ccccc2)Cc2nc(=O)[nH]n21` | -6.36 |
| 47 | `CCN(CC)c1ccc(C(=O)N(C)Cc2c(C)noc2C)cn1` | 5.134 |
| 48 | `Cc1nc(C2CCCN2CC(=O)N(Cc2ccsc2)C2CC2)no1` (configuration not stated) | 0.08354 |
| 49 | `CN1CCC(c2cccc(-c3ccc(C(=O)O)cc3)n2)CC1` | 1.436 |
| 50 | `COc1cc(C)nc(N2CCN(C(=O)CN(C)C(C)C)CC2)n1` | 12.41 |
| 51 | `CN(C)c1nccc(C2CCN(c3ncccn3)CC2)n1` | 3.958 |
| 52 | `CC(NC(=O)CNCCn1cccn1)c1ccc2c(c1)OCCO2` (configuration not stated) | -10.47 |
| 53 | `Cc1cc(C(=O)N2CCC(NC(=O)c3cccnc3)CC2)c(C)o1` | -9.232 |
| 54 | `Cc1cc(NC(=O)NCC(c2ccccc2)N2CCOCC2)n(C)n1` (configuration not stated) | -9.389 and 1.366 and -8.372 |
| 55 | `N#Cc1ccc(SCCCO)c(F)c1` | -0.6857 |
| 56 | `CCC(C)NS(=O)(=O)Cc1cccc(NC(=O)c2cc[nH]c2C)c1` (configuration not stated) | -12.99 |
| 57 | `Cc1cc(C)c(-n2cc(CCO)cn2)cc1C` | -32.3 |
| 58 | `Cc1nc(CN(C)C(=O)C2CC(=O)N(c3cccc(O)c3)C2)cs1` (configuration not stated) | 2.018 |
| 59 | `CN(C)c1ncccc1CNC(=O)N1CCCC1c1cccs1` (configuration not stated) | 6.287 |
| 60 | `Cc1ccc(C(=O)Nc2ccc(N(C)C)cn2)n1C` | -16.7 and -26.84 |

The first 6 entries again:

| structure | effect |
|---|---|
| `Cc1csc(N2CCN(C(=O)CCn3cccn3)CC2)n1` | 1.019 |
| `CC(C)(O)CN1CCN(C(=O)c2cccnc2O)CC1` | 4.187 |
| `Cc1cn2cc(-c3nc4c([nH]3)CCCNC4=O)nc2s1` | 1.23 and 25.12 and -9.577 |
| `CCCn1nccc1-c1cc(C2CCN(S(C)(=O)=O)CC2)ccn1` | 1.153 |
| `O=C(O)C(F)(F)F.[H][C@@]12OCCN(S(=O)(=O)C3CC3)[C@@]1([H])CC[C@@H]2Oc1ncccc1F` | 3.671 |
| `O=C(CCc1cc2n(n1)CCCN(C(=O)c1cccnc1)C2)NC1CC1` | -2.912 |

Source: ChEMBL document CHEMBL3988442, “University of Dundee, Small-Polar-MMV Screening Library” (2021).